Measured values: the supplement of paper PMC10849652
The other results are listed elsewhere or left out.

Chains of the proteins cited; added tags and fusions are not shown. Lines headed by an entry give the natural chain unless they say otherwise; changes in a name come on top.
UniProt A6NK58: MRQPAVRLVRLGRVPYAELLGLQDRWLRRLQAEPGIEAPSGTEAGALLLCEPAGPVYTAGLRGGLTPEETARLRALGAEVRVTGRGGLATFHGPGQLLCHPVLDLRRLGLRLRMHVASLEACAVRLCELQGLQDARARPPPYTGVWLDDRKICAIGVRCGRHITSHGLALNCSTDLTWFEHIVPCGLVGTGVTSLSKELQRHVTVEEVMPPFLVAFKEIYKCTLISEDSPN
UniProt P28300: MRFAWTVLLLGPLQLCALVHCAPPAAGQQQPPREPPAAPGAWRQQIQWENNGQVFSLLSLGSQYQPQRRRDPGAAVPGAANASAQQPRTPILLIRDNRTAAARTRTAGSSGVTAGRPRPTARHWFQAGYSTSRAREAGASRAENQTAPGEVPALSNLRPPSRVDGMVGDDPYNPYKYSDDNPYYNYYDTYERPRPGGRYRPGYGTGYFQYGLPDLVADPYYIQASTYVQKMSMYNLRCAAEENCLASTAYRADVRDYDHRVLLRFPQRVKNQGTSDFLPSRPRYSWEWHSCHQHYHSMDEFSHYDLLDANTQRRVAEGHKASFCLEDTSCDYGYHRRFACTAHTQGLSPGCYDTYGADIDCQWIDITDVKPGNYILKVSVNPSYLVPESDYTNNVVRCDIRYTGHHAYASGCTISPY
UniProt Q93052: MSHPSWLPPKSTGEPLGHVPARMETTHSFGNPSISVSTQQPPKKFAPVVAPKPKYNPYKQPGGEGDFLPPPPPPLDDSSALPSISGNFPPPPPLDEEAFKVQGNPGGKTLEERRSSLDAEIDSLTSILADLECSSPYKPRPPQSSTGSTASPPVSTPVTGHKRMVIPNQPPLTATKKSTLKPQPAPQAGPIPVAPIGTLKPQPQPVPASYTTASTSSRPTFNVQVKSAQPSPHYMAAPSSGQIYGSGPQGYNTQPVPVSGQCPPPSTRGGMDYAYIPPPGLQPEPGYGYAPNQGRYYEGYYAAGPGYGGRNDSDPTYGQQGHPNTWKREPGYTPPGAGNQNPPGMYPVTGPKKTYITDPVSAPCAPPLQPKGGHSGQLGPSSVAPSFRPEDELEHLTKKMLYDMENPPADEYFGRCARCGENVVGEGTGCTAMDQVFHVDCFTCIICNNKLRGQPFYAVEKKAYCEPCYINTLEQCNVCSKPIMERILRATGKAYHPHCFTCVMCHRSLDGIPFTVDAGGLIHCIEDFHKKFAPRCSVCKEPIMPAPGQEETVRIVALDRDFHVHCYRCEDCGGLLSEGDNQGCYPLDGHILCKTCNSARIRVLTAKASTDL
UniProt Q9Y4W2: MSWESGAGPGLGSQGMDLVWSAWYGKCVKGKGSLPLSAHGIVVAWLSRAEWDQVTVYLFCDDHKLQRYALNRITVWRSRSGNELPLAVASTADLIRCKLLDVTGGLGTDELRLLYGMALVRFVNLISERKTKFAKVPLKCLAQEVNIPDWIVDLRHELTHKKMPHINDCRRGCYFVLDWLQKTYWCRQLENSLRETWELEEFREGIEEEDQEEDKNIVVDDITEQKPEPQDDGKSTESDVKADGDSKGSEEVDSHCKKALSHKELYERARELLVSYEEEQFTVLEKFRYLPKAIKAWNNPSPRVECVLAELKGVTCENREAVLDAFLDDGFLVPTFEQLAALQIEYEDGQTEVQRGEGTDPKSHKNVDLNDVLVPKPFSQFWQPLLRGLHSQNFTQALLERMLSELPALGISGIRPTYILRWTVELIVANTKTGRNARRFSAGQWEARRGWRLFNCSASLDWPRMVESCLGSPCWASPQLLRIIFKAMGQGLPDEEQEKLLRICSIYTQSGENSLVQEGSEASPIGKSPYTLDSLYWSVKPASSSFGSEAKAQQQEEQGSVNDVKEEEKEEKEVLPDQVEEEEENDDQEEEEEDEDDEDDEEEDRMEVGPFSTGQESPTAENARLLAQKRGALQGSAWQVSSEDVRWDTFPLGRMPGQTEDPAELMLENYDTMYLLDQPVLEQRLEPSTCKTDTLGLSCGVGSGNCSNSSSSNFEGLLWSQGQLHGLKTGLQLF
UniProt Q13571: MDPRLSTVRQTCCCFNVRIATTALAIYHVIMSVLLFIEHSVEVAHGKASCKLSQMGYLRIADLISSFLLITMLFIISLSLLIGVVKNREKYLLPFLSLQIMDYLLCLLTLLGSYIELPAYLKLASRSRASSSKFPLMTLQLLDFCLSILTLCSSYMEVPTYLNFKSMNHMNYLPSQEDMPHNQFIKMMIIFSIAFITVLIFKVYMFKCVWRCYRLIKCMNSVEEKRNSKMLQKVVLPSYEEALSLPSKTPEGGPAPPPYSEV
UniProt Q9Y234: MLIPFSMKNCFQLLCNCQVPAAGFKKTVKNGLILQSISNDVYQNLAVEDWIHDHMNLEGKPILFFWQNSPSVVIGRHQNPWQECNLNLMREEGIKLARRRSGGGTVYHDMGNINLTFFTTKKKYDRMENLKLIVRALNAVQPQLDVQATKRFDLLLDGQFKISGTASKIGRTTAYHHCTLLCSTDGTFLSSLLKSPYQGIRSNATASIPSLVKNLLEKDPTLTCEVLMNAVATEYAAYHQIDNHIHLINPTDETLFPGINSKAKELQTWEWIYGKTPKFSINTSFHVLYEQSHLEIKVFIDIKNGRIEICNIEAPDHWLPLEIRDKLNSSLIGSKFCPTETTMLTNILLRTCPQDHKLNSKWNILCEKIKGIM
UniProt P55268: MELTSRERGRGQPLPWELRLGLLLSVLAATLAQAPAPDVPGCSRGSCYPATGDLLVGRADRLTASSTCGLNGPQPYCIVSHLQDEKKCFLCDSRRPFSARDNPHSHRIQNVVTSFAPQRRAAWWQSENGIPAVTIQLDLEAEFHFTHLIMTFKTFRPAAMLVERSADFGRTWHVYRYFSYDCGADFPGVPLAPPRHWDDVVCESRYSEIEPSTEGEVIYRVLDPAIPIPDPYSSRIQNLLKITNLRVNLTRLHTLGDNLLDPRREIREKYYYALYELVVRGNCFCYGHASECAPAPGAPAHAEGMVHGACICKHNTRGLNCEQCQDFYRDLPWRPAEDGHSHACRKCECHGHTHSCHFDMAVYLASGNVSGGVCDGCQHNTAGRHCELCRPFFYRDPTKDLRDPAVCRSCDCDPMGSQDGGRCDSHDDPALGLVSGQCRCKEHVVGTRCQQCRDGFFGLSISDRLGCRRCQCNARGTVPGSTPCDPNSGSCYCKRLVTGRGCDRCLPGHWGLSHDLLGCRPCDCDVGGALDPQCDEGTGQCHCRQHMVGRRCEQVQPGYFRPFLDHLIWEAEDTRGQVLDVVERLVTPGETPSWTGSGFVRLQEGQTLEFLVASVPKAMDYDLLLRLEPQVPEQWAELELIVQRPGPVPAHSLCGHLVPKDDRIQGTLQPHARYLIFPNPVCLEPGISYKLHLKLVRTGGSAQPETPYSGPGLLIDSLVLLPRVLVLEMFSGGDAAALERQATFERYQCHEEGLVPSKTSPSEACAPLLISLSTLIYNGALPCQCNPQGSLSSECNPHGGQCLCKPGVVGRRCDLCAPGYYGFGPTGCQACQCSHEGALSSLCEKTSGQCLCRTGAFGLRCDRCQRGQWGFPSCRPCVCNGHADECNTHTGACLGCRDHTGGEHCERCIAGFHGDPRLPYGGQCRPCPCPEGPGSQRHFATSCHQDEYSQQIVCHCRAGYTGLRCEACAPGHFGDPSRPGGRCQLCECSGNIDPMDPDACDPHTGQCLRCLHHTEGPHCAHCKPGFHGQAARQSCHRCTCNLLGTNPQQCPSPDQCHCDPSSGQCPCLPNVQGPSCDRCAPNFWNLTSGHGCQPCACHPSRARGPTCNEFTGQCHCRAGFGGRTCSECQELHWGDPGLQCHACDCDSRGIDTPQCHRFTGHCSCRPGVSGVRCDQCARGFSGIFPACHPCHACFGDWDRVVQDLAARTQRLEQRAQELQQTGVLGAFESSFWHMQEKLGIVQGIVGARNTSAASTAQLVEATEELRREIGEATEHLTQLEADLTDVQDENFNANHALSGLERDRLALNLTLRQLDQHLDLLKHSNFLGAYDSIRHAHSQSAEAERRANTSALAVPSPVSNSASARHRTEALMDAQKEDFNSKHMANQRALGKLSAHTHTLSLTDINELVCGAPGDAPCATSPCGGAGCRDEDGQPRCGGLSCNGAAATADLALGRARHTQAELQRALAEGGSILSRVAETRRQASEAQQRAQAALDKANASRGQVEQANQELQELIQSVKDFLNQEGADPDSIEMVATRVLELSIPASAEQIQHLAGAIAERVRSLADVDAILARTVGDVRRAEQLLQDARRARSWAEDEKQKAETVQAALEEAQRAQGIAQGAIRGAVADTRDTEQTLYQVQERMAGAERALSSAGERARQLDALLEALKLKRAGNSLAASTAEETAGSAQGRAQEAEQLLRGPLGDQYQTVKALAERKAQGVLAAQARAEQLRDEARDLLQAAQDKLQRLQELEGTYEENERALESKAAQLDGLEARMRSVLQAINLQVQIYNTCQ
UniProt Q9H9Z2: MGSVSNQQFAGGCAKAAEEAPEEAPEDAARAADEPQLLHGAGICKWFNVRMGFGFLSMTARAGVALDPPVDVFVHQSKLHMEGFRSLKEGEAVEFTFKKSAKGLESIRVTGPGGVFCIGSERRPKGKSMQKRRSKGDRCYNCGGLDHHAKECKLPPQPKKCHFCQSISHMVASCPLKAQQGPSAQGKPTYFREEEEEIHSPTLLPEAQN
UniProt P07864: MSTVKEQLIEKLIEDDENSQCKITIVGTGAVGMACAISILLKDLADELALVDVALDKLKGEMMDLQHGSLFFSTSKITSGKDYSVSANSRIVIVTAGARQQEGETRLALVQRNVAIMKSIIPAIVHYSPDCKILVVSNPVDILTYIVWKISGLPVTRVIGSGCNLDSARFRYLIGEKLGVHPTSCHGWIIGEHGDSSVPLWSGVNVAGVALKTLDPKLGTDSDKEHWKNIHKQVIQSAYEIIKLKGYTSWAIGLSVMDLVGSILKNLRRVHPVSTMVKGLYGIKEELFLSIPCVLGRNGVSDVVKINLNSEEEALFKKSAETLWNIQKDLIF
UniProt P80188: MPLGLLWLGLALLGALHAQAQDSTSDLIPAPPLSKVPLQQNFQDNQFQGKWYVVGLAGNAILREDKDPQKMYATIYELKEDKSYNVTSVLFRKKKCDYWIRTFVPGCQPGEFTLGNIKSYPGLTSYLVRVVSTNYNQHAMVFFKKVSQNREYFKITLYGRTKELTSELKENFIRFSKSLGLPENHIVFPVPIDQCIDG
UniProt Q5TKA1: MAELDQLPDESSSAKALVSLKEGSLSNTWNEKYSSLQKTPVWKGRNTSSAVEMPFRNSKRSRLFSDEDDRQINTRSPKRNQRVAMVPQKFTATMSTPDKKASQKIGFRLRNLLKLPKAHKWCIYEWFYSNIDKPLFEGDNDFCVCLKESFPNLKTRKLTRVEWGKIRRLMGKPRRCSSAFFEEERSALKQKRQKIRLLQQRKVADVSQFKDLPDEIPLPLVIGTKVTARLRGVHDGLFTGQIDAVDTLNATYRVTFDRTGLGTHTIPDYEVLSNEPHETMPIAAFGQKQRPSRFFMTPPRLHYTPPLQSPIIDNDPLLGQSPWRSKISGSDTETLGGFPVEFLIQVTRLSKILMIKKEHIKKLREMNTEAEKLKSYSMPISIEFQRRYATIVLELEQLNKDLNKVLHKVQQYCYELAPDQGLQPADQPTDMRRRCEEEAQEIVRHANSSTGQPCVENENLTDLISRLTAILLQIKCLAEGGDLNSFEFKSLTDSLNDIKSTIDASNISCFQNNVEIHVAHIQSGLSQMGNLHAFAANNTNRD
UniProt P17931, whole entry, looked up: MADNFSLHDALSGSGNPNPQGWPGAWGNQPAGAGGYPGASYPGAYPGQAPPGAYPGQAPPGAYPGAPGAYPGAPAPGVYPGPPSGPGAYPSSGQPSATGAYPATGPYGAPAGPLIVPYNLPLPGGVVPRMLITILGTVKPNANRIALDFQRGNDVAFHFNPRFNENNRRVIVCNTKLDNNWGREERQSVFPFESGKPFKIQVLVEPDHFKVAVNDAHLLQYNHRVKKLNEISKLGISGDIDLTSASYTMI
UniProt Q6P5S2: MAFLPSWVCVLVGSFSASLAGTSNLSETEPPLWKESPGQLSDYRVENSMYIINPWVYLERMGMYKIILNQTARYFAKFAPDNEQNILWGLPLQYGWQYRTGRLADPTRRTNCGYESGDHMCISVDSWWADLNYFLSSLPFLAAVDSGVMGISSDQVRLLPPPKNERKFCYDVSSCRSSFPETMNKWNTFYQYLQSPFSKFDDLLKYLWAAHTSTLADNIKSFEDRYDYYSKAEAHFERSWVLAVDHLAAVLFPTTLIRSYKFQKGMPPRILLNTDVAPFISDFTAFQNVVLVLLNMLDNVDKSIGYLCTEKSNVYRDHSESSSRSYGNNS
UniProt Q5SW96: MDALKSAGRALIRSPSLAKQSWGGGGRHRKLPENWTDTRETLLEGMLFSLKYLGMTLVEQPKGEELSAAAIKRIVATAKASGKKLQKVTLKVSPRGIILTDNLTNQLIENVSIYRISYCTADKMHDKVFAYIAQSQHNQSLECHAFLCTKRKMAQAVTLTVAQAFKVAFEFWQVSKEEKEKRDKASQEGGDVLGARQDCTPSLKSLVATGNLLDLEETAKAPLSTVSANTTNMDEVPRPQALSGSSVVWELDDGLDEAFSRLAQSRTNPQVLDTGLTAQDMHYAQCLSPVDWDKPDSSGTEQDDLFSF

Experiments:
Assay in all cases: log2 fold change, soluble protein after heating vs DMSO (PISA); higher = thermal stabilisation; K562 cells, 10 uM, 30 min; active = over 0.2 and 3.5 SD of the protein, either way, in both replicates (recomputed)
[1] = compound: C1=CC(=C(C=C1Cl)C2=NC3=NC=CN=C3C(=N2)NC4=CC=NC=C4)F
Outline: (§1)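 K562 cells at 2×10^6 cells/mL were treated for 30 min with 10 μM compound, and aliquots were heated for 3 min over 48°C-58°C before pooling. Extraction used PBS with 0.5% NP-40 at 4°C, and soluble protein was the supernatant after 21,000xg for 90 min, measured by TMTpro 16plex LC-MS/MS with channel sums equalised. Thermal stability values, relative to control samples and from duplicates, are log2 fold changes.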

[2] = compound: C1=CC=C(C=C1)C2=NC(=C(N2)C3=CC=NC=C3)C4=CC(=C(C=C4)Cl)O
Outline: as §1

[3] = compound: C1CCN(C1)C(=O)NC2=CC=CC(=C2)NC3=NC=C(C(=N3)NCCC4=CN=CN4)Br
Outline: as §1

[4] = compound: C1CN(CCC1(CC2=CC=C(C=C2)Cl)N)C3=NC=NC4=C3C=CN4
Outline: as §1

erlotinib = compound: C#Cc1cccc(Nc2ncnc3cc(OCCOC)c(OCCOC)cc23)c1 [erlotinib]
Outline: as §1

[5] = compound: C1=CC(=CC=C1C2=NC3=C(N2)C=C(C=C3)C(=O)N)OC4=CC=C(C=C4)Cl
Outline: as §1

[6] = compound: C1=CC2=NC=CN=C2C=C1/C=C/3\C(=O)NC(=O)S3
Outline: as §1

[7] = compound: C/C(=N\NC(=O)C1=CC(=CC=C1)S(=O)(=O)N2CCOCC2)/C3=C(C=CC(=C3)Cl)O
Outline: as §1

[8] = compound: C1=CC2=C(C=CC(=C2)/C=C\3/C(=O)NC(=NCC4=CC=CS4)S3)N=C1
Outline: as §1

[9] = compound: C1=CC=C2C(=C1)C3=NNC4=CC=CC(=C43)C2=O
Outline: as §1

Measured: log2 fold change

LRCH4 (UniProt O75427)
inactive: [1] -0.036 | [2] -0.041

LIPT2 (UniProt A6NK58)
inactive: [1] -0.004 | [3] -0.055 | [4] 0.048

LOX (UniProt P28300)
inactive: erlotinib -0.245 | [5] 0.315 | [6] 0.038

LPP (UniProt Q93052)
inactive: [1] 0.071 | [6] -0.058

LACRT (UniProt Q9GZZ8)
inactive: [7] 0.086 | [1] 0.243 | [8] -0.029 | [6] -0.436 | [2] -0.257 | [9] -0.211

LMLN isoform 3 (UniProt Q96KR4)
inactive: [1] -0.043 | [6] 0.135

LBH (UniProt Q53QV2)
inactive: [7] 0.172 | [1] 0.008 | [8] 0.202 | [2] -0.114 | [9] 0.298

2 records picked at random from those above, as already listed:
LOX (UniProt P28300)
inactive: erlotinib -0.245 | [5] 0.315 | [6] 0.038

LPP (UniProt Q93052)
inactive: [1] 0.071 | [6] -0.058

Additional results:

LAS1L (UniProt Q9Y4W2)
inactive: [7] 0.004 | [1] -0.257 | [8] -0.064 | [6] 0.04 | [2] 0.077 | [9] 0.01 | [3] -0.027 | [4] -0.169

LRRC41 (UniProt Q15345)
inactive: erlotinib 0.097 | [5] -0.322 | [6] 0.241

LARP1B, A0A3B3ISF0
inactive: [2] -0.046

LCOR isoform 3 (UniProt Q96JN0)
inactive: [7] -0.134 | [8] -0.172 | [9] -0.02

LRP5 (UniProt O75197)
inactive: [1] -0.148 | [3] -0.049 | [4] 0.095

LAMA2 (UniProt P24043)
inactive: erlotinib 0.429 | [5] -0.187 | [6] 0.108

LAPTM5 (UniProt Q13571)
inactive: [7] -0.061 | [8] -0.064 | [6] -0.118 | [2] 0.048 | [9] 0.006 | [3] 0.103 | [4] 0.092

LIPT1 (UniProt Q9Y234)
inactive: [7] -0.227 | [8] 0.004 | [9] -0.151

LAMB2 (UniProt P55268)
inactive: [2] 0.066 | [3] 0.202 | [4] -0.263

LIN28A (UniProt Q9H9Z2)
inactive: [6] 0.114

LMO4 (UniProt P61968)
inactive: [7] -0.021 | [8] -0.009 | [6] 0.067 | [2] 0.083 | [9] -0.004 | [3] -0.008 | [4] 0.226

LIMS1 (UniProt P48059)
inactive: [6] 0.113

LANCL3 (UniProt Q6ZV70)
inactive: [7] 0.055 | [1] 0.079 | [8] -0.08 | [6] -0.093 | [9] -0.072

LEPROTL1 isoform 2 (UniProt O95214)
inactive: [7] 0.079 | [8] 0.027 | [6] 0.342 | [2] 0.066 | [9] -0.023 | [3] 0.045 | [4] -0.022

LDHC (UniProt P07864)
inactive: [1] 0.02 | [6] 0.131

LIMK1 (UniProt P53667)
inactive: [1] 0.046 | [6] 0.104 | [3] -0.134 | [4] 0.022

LGALS3BP (UniProt Q08380)
inactive: [7] 0.107 | [1] -0.03 | [8] -0.009 | [9] 0.026

LCN2 isoform 2 (UniProt P80188)
inactive: [3] -0.078 | [4] -0.015

L1TD1 (UniProt Q5T7N2)
inactive: [7] -0.071 | [8] 0.364 | [9] -0.055 | [3] 0.165 | [4] -0.099

LIN9 isoform 2 (UniProt Q5TKA1)
inactive: [7] -0.09 | [1] -0.007 | [8] 0.065 | [6] -0.066 | [2] -0.13 | [9] -0.042 | [3] 0.046 | [4] 0.306

LGALS3 (UniProt P17931)
inactive: [6] -0.058 | [2] -0.263

LEG1 (UniProt Q6P5S2)
inactive: [7] 0.135 | [8] -0.398 | [6] -0.088 | [9] -0.118

LRP1 (UniProt Q07954)
inactive: [7] -0.468 | [1] -0.073 | [8] 0.096 | [9] 0.076 | [3] 0.002 | [4] 0.082

LINC00526 (UniProt Q96FQ7)
inactive: erlotinib -0.066 | [5] 0.151

LRMP (UniProt Q12912)
inactive: [2] 0.011

LPCAT4 (UniProt Q643R3)
inactive: [1] -0.224

LDLRAP1 (UniProt Q5SW96)
inactive: erlotinib -0.017 | [5] 0.252 | [6] 0.199 | [2] -0.118
